Measurements reported in PubChem BioAssay AID652259 (Drosophila RNAi Screening Center, 2013).

Screen: 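Identify new Wingless signalling regulators in fly cells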 (primary screen)
Cell system: Drosophila clone 8 imaginal disc epithelial cells
Reagents: long dsRNA against Drosophila genes
Conditions: pathway stimulated by co-transfected Wingless expression plasmid
Measurement: 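Dual luciferase reads per well after Wingless plasmid stimulation: reporter firefly light and Renilla control light; activity is firefly divided by Renilla, a ratio not deposited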
Direction: firefly reporter light: higher = more Wg reporter light, before normalisation; Renilla control light: higher = more transfected or surviving cells
Active means: 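a knock-down is a candidate when at least two out of four statistical tests show it departing from its plate mean; one test alone signals a weak candidate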
Calls: active = candidate regulator (raises or lowers reporter); inactive = not a candidate
The screen tested about 22,000 reagents; shown is an unselected part of those that have a named target and a result. Of all reagents, 233 (1.1%) got an active call. 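Light values are raw, unnormalised plate reads; the ratio scores behind the reporter calls were not deposited.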 A number with no mark means an inactive call. Names joined by + are all predicted targets of the reagent. Reagent sequences are not shown. Not given: the amount of reagent, the time to read-out, the dose of the treatment.

target gene | dsRNA | reporter change call, replicate 1 | firefly reporter light, replicate 1 | firefly reporter light, replicate 2 | Renilla control light, replicate 1 | Renilla control light, replicate 2
fy (fuzzy) | DRSC03533 | – | 2427 | 5819 | 773 | 2439
CG14187 | DRSC10186 | – | 16587 | – | 4464 | –
fs(1)h (female sterile (1) homeotic) | DRSC18778 | – | 3724 | 10635 | 1292 | 2032
hpRNA:CR18854 + IP3K1 | DRSC02218 | – | 5046 | – | 2994 | –
Mccc1 (Methylcrotonoyl-CoA carboxylase 1) | DRSC15417 | – | 4460 | 8791 | 1232 | 2928
drk (downstream of receptor kinase) | DRSC07606 | – | 17281 | – | 3766 | –
btsz (bitesize) | DRSC14982 | – | 16329 | – | 1820 | –
btsz (bitesize) | DRSC15222 | Wg reporter activity raised (active) | 27333 | – | 2102 | –
btsz (bitesize) | DRSC15320 | – | 13785 | – | 3716 | –
btsz (bitesize) | DRSC16231 | – | 11233 | – | 2221 | –
Ugt304A1 (UDP-glycosyltransferase family 304 member A1) | DRSC15127 | – | 15810 | – | 4471 | –
Trm1 (tRNA methyltransferase 1) | DRSC02951 | – | 10541 | – | 3638 | –
Rbfox1 (RNA-binding Fox protein 1) | DRSC09034 | – | 5482 | – | 2325 | –
Rbfox1 (RNA-binding Fox protein 1) | DRSC10157 | – | 7493 | – | 4608 | –
Rbfox1 (RNA-binding Fox protein 1) | DRSC10320 | – | 10442 | – | 3092 | –
Rbfox1 (RNA-binding Fox protein 1) | DRSC21378 | – | 8.26e5 | 8.09e5 | 4.11e5 | 3.72e5
REPTOR-BP (REPTOR-binding partner) | DRSC02683 | – | 4336 | 7227 | 1136 | 3499
CG13083 | DRSC02187 | – | 2880 | 6067 | 699 | 1507
NijB (Ninjurin B) | DRSC09850 | – | 3602 | – | 1242 | –
Nepl9 (Neprilysin-like 9) | DRSC02255 | – | 3618 | 7443 | 1185 | 4105
l(2)gl (lethal (2) giant larvae) | DRSC00825 | – | 3504 | – | 1115 | –
l(2)gd1 (lethal (2) giant discs 1) | DRSC02773 | – | 7642 | – | 2148 | –
CG15345 (retired record) | DRSC18030 | – | 23635 | 6.46e5 | 14000 | 3.29e5
CG15345 (retired record) | DRSC22712 | – | 4.99e5 | 5.14e5 | 1.78e5 | 1.96e5
Arf6 (ADP ribosylation factor 6) | DRSC05921 | – | 7301 | – | 2312 | –
Ldsdh1 (Lipid droplet subset dehydrogenase 1) | DRSC18219 | – | 22729 | – | 14099 | –
Gr22a (Gustatory receptor 22a) | DRSC22283 | – | 6.93e5 | 6.89e5 | 2.99e5 | 2.66e5
Karl | DRSC19883 | – | 2395 | 6619 | 946 | 2280
Syx4 (Syntaxin 4) | DRSC18586 | – | 29277 | – | 14588 | –
natalisin | DRSC14966 | – | 8987 | – | 1579 | –
natalisin | DRSC14967 | – | 20784 | – | 4740 | –
Or94b (Odorant receptor 94b) | DRSC16773 | – | 15370 | – | 13329 | –
CG8141 | DRSC16387 | – | 14227 | – | 2481 | –
CG14354 | DRSC14817 | – | 19200 | – | 14480 | –
PPP4R2r (Protein phosphatase 4 regulatory subunit 2-related protein) | DRSC18695 | – | 32604 | – | 15306 | –
PPP4R2r (Protein phosphatase 4 regulatory subunit 2-related protein) | DRSC21503 | – | 8.11e5 | 8.52e5 | 4.44e5 | 3.89e5
CG15406 | DRSC00420 | – | 1953 | 5799 | 1045 | 2283
CG8547 | DRSC07211 | – | 16692 | – | 3912 | –
CG11882 | DRSC14425 | – | 8642 | – | 2875 | –
CG3815 | DRSC18324 | – | 3319 | 7722 | 1011 | 2647
CG8641 | DRSC11028 | – | 2633 | 9542 | 1898 | 3623
CG33307 | DRSC01349 | – | 24005 | – | 10664 | –
PGAP1 (Post-GPI attachment to proteins 1) | DRSC18286 | – | 2059 | 4428 | 714 | 1970
Ripalpha (RPA-interacting protein alpha) | DRSC02657 | – | 1985 | 5930 | 921 | 2981
CG1998 | DRSC19829 | – | 25616 | – | 15836 | –
Lap1 | DRSC07454 | – | 4856 | – | 1770 | –
ITP (Ion transport peptide) | DRSC04222 | – | 2525 | 6920 | 761 | 2176
Dhps (Deoxyhypusine synthase) | DRSC10948 | – | 3047 | 8139 | 1305 | 3264
sphe (spheroide) | DRSC20203 | – | 3862 | 9056 | 1463 | 2209
Stlk (Ste20-like kinase) | DRSC22687 | – | 4.22e5 | 4.10e5 | 1.54e5 | 1.32e5
CG5707 | DRSC08573 | – | 18535 | – | 4918 | –
glec (gliolectin) | DRSC16958 | – | 34695 | – | 5496 | –
CG12860 | DRSC06200 | – | 7025 | – | 2640 | –
msi (musashi) | DRSC17003 | – | 23943 | – | 13876 | –
Cyp9b1 (Cytochrome P450 9b1) | DRSC07389 | – | 3030 | 5174 | 568 | 2393
CG14005 | DRSC02337 | – | 9634 | – | 4077 | –
lectin-28C | DRSC03010 | – | 2585 | 7491 | 833 | 3872
ND-B17.2 (NADH dehydrogenase (ubiquinone) B17.2 subunit) | DRSC00577 | – | 2660 | 8251 | 1460 | 4038
wrd (well-rounded) | DRSC16337 | – | 11976 | – | 626 | –
wrd (well-rounded) | DRSC16344 | – | 12130 | – | 2230 | –
CG9445 | DRSC05006 | – | 3256 | 5866 | 263 | 3193
CG14330 | DRSC14809 | – | 25574 | – | 4720 | –
RtcB (RtcB RNA ligase) | DRSC03280 | – | 3556 | 9428 | 1093 | 3410
CG9737 | DRSC16550 | – | 8064 | – | 3130 | –
CG15262 | DRSC01975 | – | 3061 | 4929 | 1331 | 2268
Daxx (Daxx-like protein) | DRSC03255 | – | 13003 | – | 6182 | –
sba (six-banded) | DRSC13643 | – | 3829 | – | 752 | –
sba (six-banded) | DRSC17050 | – | 10790 | – | 9975 | –
CG43366 | DRSC04857 | – | 3171 | 9176 | 1034 | 3491
CG43366 | DRSC04864 | – | 3025 | 6858 | 940 | 2353
Gr77a (Gustatory receptor 77a) | DRSC11446 | – | 2949 | – | 1280 | –
eIF4A (eukaryotic translation initiation factor 4A) | DRSC03526 | – | 2187 | 5324 | 340 | 999
Sap130 (Sin3A-associated protein 130) | DRSC09680 | – | 4764 | – | 2129 | –
